Among the data in PubChem BioAssay AID493014 (National Center for Advancing Translational Sciences (NCATS), 2011) are AC50 values, retold here.

The list shows a part of the results. The main result of the screen is listed elsewhere. These columns were measured beside it and carry no call. Most of these compounds were active or inconclusive in the main read-out, so they are no random draw. Potencies come from curve fits of mixed quality, noted in brackets.

This assay is described as follows: qHTS Assay to Find Inhibitors of Chronic Active B-Cell Receptor Signaling. Particulars: ABC-DLBCL IkBa-CBG/CBR reporter, luminescence ratio (green luciferase fused to IkBa over red control in TMD8 lymphoma cells), 4 h. In a few lines:
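Concentration-response series (up to 46 uM) were applied to TMD8 dual-reporter cells for 4 h at 37C with doxycycline. Green/red ratio, after filter-overlap correction, defined %Activity; red signal alone was normalised to basal cells and zero luminescence.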

Setting [1] is: measured here: CBR red luminescence, cell number.
Where [2] appears, read: measured here: IkBa-CBG green luminescence.

The term AC50 denotes the midpoint of the concentration-response curve, whichever way the signal moves.

For `CN(C)c1ccc(-c2nnc(-c3cccs3)o2)cc1`, the half-maximal activity concentration (AC50) under setting [1] was 2.24 µM [falling, partial curve, poor fit].
As to `CCN(c1ccccc1)S(=O)(=O)c1cc(C(=O)Nc2cccc(Cl)c2)ccc1F`, the concentration at half-maximal activity (AC50) was 23.1 µM [falling, single point] under setting [1] and 9.2 µM [rising, partial curve, poor fit] under setting [2].
Turning to `O=C(NC(=S)Nc1ccc(S(=O)(=O)N2CCCC2)cc1)c1cccs1`, the AC50 under setting [1] was 16.4 µM [falling, single point].
Turning to `CC(C)Oc1ccc(Br)cc1C(=O)N/N=C/c1c[nH]c2ccccc12`, under setting [1], the AC50 was 10 µM [falling, partial curve, poor fit].
Turning to `C/C(=N/NC(=O)c1cc(O)c(O)c(O)c1)c1ccc([N+](=O)[O-])cc1`, the concentration at half-maximal activity (AC50) under setting [1] was 31.6 µM [falling, single point].
In the case of `Nc1c(C(=O)Nc2ccc3c(c2)OCCO3)nnn1Cc1ccccc1`, the concentration at half-maximal activity (AC50) under setting [1] is 32.6 µM [falling, single point].
For `COc1ccccc1NC(=O)c1sc(NC(=O)c2ccco2)c(C#N)c1C`, the concentration at half-maximal activity (AC50) under setting [1] was 18.4 µM [falling, partial curve, poor fit].
The same measure, in the same setting: the figure for `CCn1c(=NC(=O)CSCC(=O)Nc2nccs2)sc2ccccc21` is 29.1 µM [rising, single point]; for `Cc1nc2cc(NC(=O)NCc3ccc4c(c3)OCO4)ccc2o1` it is 18.4 µM [falling, partial curve, poor fit].
Consider `CCOC(=O)Cn1c(=NC(=O)c2cc(-c3cccs3)nc3ccccc23)sc2cc(S(N)(=O)=O)ccc21`, for which the AC50 under setting [1] is 11.6 µM [falling, partial curve, poor fit].
As to `CCOC(=O)C(NC(=O)CC)(Nc1ccc(S(=O)(=O)Nc2ncccn2)cc1)C(F)(F)F` (stereo not drawn), under setting [1], the concentration at half-maximal activity (AC50) was 0.631 µM [falling, partial curve, poor fit].
As to `O=C(c1cc(-c2ccc(O)cc2)on1)N1CCOCC1`, under setting [1], the concentration at half-maximal activity (AC50) is 10 µM [falling, partial curve].
For the compound `Cc1ccc(C(=O)Nc2cccc(C(=O)NCc3ccco3)c2)cc1`, the AC50 under setting [1] is 4.61 µM [falling, partial curve, poor fit].
Take `COC(=O)c1ccc(CNC(=O)Cn2cnc3c(NCc4ccccc4)ncnc32)cc1`: the AC50 under setting [2] is 25.9 µM [falling, partial curve].
Consider `CCOc1ccc(S(=O)(=O)Nc2ccc(C(=O)NCc3ccncc3)cc2)cc1`, for which, under setting [1], the AC50 is 1.46 µM [rising, partial curve].
Consider `COc1ccc(C2=CC(c3ccco3)n3ncnc3N2)cc1` (stereo not drawn), for which the AC50 under setting [1] was 35.5 µM [falling, single point].
`Cc1nc(NC(=O)c2ccccc2)sc1-c1csc(N)n1`: under setting [1], the concentration at half-maximal activity (AC50) is 12.6 µM [falling, partial curve, poor fit].
